Some of these results come from one statement about several compounds together.
Test system: hypertrophic scars or keloids
Assay: Overall inhibitory effect on formation of hypertrophic scars or keloids (HDF/KF tests)
Assay type: cell-based
Settings: compared with the ZAG protein
Protocol: A CCK-8 assay was performed to select amino acid sequences corresponding to the core active region of ZAG, which has an inhibitory effect on the formation of scars, among the 18 peptide candidates. Human dermal fibroblasts (HDFs) and keloid fibroblasts (KFs) were treated with the ZAG protein-derived peptide candidates (Z1 to Z18) and the ZAG protein (ZAG) at a concentration of 10 μg/mL, and cell proliferation was then confirmed using a CCK-8 assay. A group treated with the ZAG protein alone was used as a positive control, and an untreated group was used as a negative control.
HDFs and KFs were seeded in a 6-well plate. After 24 hours, the center of each well was scratched to create a wound generation model. Thereafter, the HDF test group was treated with 10 ng/mL of TGF-β, which is overexpressed during scar formation, to create a scarring environment, and then treated with Z15mer_1 to Z15mer_4 additionally synthesized in Preparation Example 2. The migration of cells in the affected area was confirmed 24 hours later.

Sequence | inhibitory effect on the formation of hypertrophic scars or keloids
TYQSWVVVAVPPQDTAPYSCHVQHSSLAQP (ZAG protein-derived peptide) [Peptide Z9] | superior inhibitory effect
QENQDGRYSLTYIYTGLSKHVEDVPAFQAL (ZAG protein-derived peptide) [Peptide Z1] | superior inhibitory effect
APGEKKKLKCLAYDFYPGKIDVHWTRAGEV (ZAG protein-derived peptide) [Peptide Z16] | superior inhibitory effect
ENNRSSGAFWKYYYDGKDYIEFNKEIPAWV (ZAG protein-derived peptide) [Peptide Z15] | superior inhibitory effect
GLSKHVEDVPAFQALGSLNDLQFFRYNSKD (ZAG protein-derived peptide) [Peptide Z10] | superior inhibitory effect
YPGKIDVHWTRAGEVQEPELRGDVLHNGNG (ZAG protein-derived peptide) [Peptide Z8] | superior inhibitory effect
GSLNDLQFFRYNSKDRKSQPMGLWRQVEGM (ZAG protein-derived peptide) [Peptide Z2] | superior inhibitory effect

— patent US20240226233A1, “COMPOSITION COMPRISING ZAG-DERIVED PEPTIDE FOR IMPROVING SCARS AND KELOIDS” (L&C BIO CO., LTD., priority 2021, published 2024)
